# Data taken from PubChem BioAssay AID2685 (National Center for Advancing Translational Sciences (NCATS), 2010).
# The other results are listed elsewhere or left out. These are further read-outs of the screen, such as a control signal, another cell line or another target. No call is given for them. Compounds called inactive in the main read-out are mostly missing here. Potencies come from curve fits of mixed quality, noted in brackets.
# Experiment: qHTS Assay for Lipid Storage Modulators in Drosophila S3 Cells;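 as to cell number change: cells counted by Cell Tracker Red CMTPX staining in the red channel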
# Details: BODIPY lipid droplet fluorescence, 18-24 h; for cell number change: measured here: cell count max response, cells fed with added oleic acid
# Procedure, shortened: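 Drosophila S3 cells got compounds at several concentrations plus oleic acid (400 uM solution). Laser-scanning cytometry with 488 nm excitation read lipid droplets at 500-530 nm and cells at 575-640 nm. Percent activity was relative to 20 uM Triacsin C.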
# [1] = measured here: cell number channel AC50, cells fed with added oleic acid
# [2] = measured here: lipid fluorescence (Fed channel) AC50, cells fed with added oleic acid
Structure (SMILES),AC50 [1],cell number change,AC50 [2]
CC(NS(C)(=O)=O)C(c1cccs1)N1CCN(C)CC1 (configuration not stated),"0.13 µM [falling, full curve, poor fit]",,
COc1ccc(CN(CC(=O)NC2CCCC2)C(=O)c2ccc(-c3ccccc3)[nH]2)cc1,"0.184 µM [falling, full curve, poor fit]",,
CCCCN(C(=S)Nc1cccc(C)c1C)c1c(N)n(CCC)c(=O)[nH]c1=O,"0.82 µM [falling, partial curve]",11.1%,"29.1 µM [falling, single point]"
CCN(CC)C(=S)SC1=CCS(=O)(=O)C1,,28.5%,"29.1 µM [rising, single point]"
CC(C)(C)c1ccc(-c2nnc(SCC(=O)Nc3sc4c(c3C#N)CCCC4)o2)cc1,,21.4%,"20.6 µM [rising, single point]"
CCOc1ccc(N=C2C(=O)N(CN3CCOCC3)c3ccccc32)cc1,,-5.35%,"0.0291 µM [falling, full curve, poor fit]"
CC(=O)c1cnc2c(C(=O)O)cnn2c1C,,-4.42%,"6.51 µM [falling, single point]"
COc1ccccc1CC(=O)Nc1ccc(-c2nnc(-c3ccco3)o2)cc1,,-9.56%,
CCN(CC)CC(=O)N1N=C(c2cccs2)CC1c1ccco1 (configuration not stated),"16.4 µM [falling, partial curve]",-116%,
CCC(=O)Nc1nnc(S(=O)(=O)N2CCc3ccccc32)s1,,-7.49%,
O=C1[C@@H]2[C@H](Cc3ccc(O)cc3)N[C@]3(C(=O)Nc4ccccc43)[C@@H]2C(=O)N1c1ccc(F)cc1,,-0.0641%,"4.11 µM [falling, single point]"
Oc1ccccc1Nc1ncnc2c1oc1ccccc12,,-12.3%,
Cc1ccc(COc2ccc(/C=N/NC(=O)CN3CCCCC3)cc2)cc1,"0.00411 µM [rising, full curve, poor fit]",3.63%,
O=C(O)CCCCCNC(=O)c1ccc(C(=O)NCCCCCC(=O)O)cc1,,-16.3%,"1.16 µM [falling, full curve]"
CCOC(=O)C1CCN(C(=O)COC(=O)COc2ccccc2OC)CC1,,-7.22%,"29.1 µM [falling, single point]"
O=c1ccc(C(F)(F)F)cn1Cc1cc(=O)n2cc(Br)ccc2n1,,,"14.6 µM [rising, partial curve]"
COc1ccc(CNCCSc2nnnn2C)c(OC)c1OC,,16.9%,"0.517 µM [falling, full curve, poor fit]"
Cc1ccc(S(=O)(=O)N2CCCC(C(=O)N3CCN(c4ccccc4)CC3)C2)cc1 (configuration not stated),"32.6 µM [falling, single point]",-39.2%,"11.6 µM [falling, partial curve]"
COc1ccccc1CNC(=O)COC(=O)c1cnccn1,,-2.91%,
COc1ccc(/C=N/Nc2nc(-c3ccc(C)cc3)c(C#N)c(=O)[nH]2)cc1,"2.06 µM [rising, partial curve]",80.9%,
Cc1ccc(S(=O)(=O)N(CC(=O)NCC2CCCO2)Cc2cccc(C)c2)cc1 (configuration not stated),,14.5%,"0.116 µM [rising, full curve, poor fit]"

# Compounds listed so far that contain a COOH group:
Structure (SMILES),AC50 [1],cell number change,AC50 [2]
CC(=O)c1cnc2c(C(=O)O)cnn2c1C,,-4.42%,"6.51 µM [falling, single point]"
O=C(O)CCCCCNC(=O)c1ccc(C(=O)NCCCCCC(=O)O)cc1,,-16.3%,"1.16 µM [falling, full curve]"

# The list continues.

Structure (SMILES),AC50 [1],cell number change,AC50 [2]
CCOC(=O)C1(CCOc2ccccc2)CCN(CCCn2cccn2)CC1,,1.65%,"0.82 µM [falling, full curve, poor fit]"
Cc1cccc(NC(=S)N=Nc2c(O)n(C)c3ccc(S(=O)(=O)N4CCOCC4)cc23)c1,,9.59%,"7.31 µM [falling, single point]"
Cc1ccc(S(=O)(=O)N/N=C2/CC(c3ccccc3)Oc3ccccc32)cc1[N+](=O)[O-] (configuration not stated),,-8.56%,"18.4 µM [rising, single point]"
COc1ccc(Cl)cc1-c1nc(SCC(=O)N(C)CCC#N)n[nH]1,"0.411 µM [falling, single point]",12.5%,
COCC(=O)N1CCC(Oc2ccc(C(=O)N(C)C3CCCCC3)cc2)CC1,,4.54%,"1.16 µM [rising, full curve, poor fit]"
CCc1ccc(NC(=S)N(Cc2ccccc2)Cc2ccccn2)cc1,"20.6 µM [rising, partial curve]",60.7%,
CCOC(=O)COc1cc2oc(=O)cc(C)c2cc1[N+](=O)[O-],,-27.2%,"29.1 µM [falling, single point]"
Cc1ccc(SCc2cc(=O)[nH]c(N3CCCCC3)n2)cc1,,4.7%,
Cc1ccc(S(=O)(=O)NC(C)CCc2ccccc2)cc1 (configuration not stated),"0.00461 µM [falling, full curve, poor fit]",,"0.13 µM [falling, full curve, poor fit]"
Cc1cc(C(=O)COc2nncc3ccccc23)c(C)n1C,"0.58 µM [rising, single point]",23.9%,"4.11 µM [rising, single point]"
O=C(NCCc1nc2ccccc2[nH]1)Nc1ccccc1,,-17.1%,"5.17 µM [falling, full curve, poor fit]"
CCN(CC(=O)Nc1ccc(NC(C)=O)cc1)C(=O)CSC(=S)N1CCCC1,"20.6 µM [falling, single point]",-38.4%,"20.6 µM [falling, single point]"
CCC(C)C(=O)Nc1cccc(SC)c1 (configuration not stated),"29.1 µM [falling, single point]",-43.4%,"0.058 µM [falling, full curve, poor fit]"
CC[C@@]1(O)C(=O)OCc2c1cc1n(c2=O)Cc2cc3c(N)cccc3nc2-1,,-22.6%,"0.0231 µM [falling, full curve, poor fit]"
Cc1cccc(C)c1NC(=O)CN(C)C(=O)C1CCN(c2ncnc3sc(C)c(C)c23)CC1,"0.731 µM [rising, partial curve]",3.19%,"2.31 µM [rising, partial curve]"
c1cc2c(cc1-c1[nH]ncc1CN1CC3C[C@@H]4CC1C[C@H](C3)C4)OCO2,,12.7%,
CN1CCN(c2ccc(C(=O)c3cn(-c4ccc(F)c(Cl)c4)nn3)cc2)CC1,,,"4.61 µM [falling, partial curve]"
Cc1cccc(NC(=O)c2cc(S(=O)(=O)N3CCC4(CC3)OCCO4)ccc2F)c1,,,"6.51 µM [rising, single point]"
CCOc1ccc(N(CC(=O)NCCc2ccccc2)C(=O)CCC(=O)Nc2nccs2)cc1,,-5.13%,
O=C(CC12CC3CC(CC(C3)C1)C2)NCCN1CCOCC1,,-10.6%,"0.731 µM [falling, full curve, poor fit]"
COc1ccc(NC(=O)CSc2nccn2-c2cccc(OC)c2)cc1,,-20.9%,"29.1 µM [falling, single point]"

Structure (SMILES),AC50 [1],cell number change,AC50 [2]
CC(=O)c1c(C)[nH]c(C(=O)Nc2cccc(S(=O)(=O)N(C)c3ccccc3)c2)c1C,,-25.5%,"0.82 µM [falling, full curve, poor fit]"
Cc1ccc(S(=O)(=O)N(NC2=NS(=O)(=O)c3ccccc32)C(=O)c2ccccc2)cc1,,-2.29%,"32.6 µM [rising, single point]"
c1ccc(COCCN2CCN(CCOCc3ccccc3)CC2)cc1,,-6.33%,
O=C(NCc1ccco1)Nc1ccccc1Cl,,,"6.51 µM [falling, single point]"
CCN(CC)C(=O)CSc1nc2nc(C)cc(C)c2c(=O)[nH]1,,121%,"0.58 µM [falling, single point]"
CCc1noc(C)c1C(=O)Nc1cc(Cl)ccc1N1CCCC1,"14.6 µM [rising, partial curve]",46.5%,
CN(Cc1nc(Cc2ccccc2F)no1)Cc1cccc2ncccc12,,6.79%,"6.51 µM [rising, single point]"
CC(C)C[C@H](NC(=O)N1CCn2c1nc1ccccc12)C(=O)NCc1ccco1,,1.22%,
CC(C)n1c(O)c(N=Nc2ccc(Cl)nn2)c2ccccc21,,-16.3%,"6.51 µM [falling, single point]"
CCOC(=O)c1c(NC(=O)CN2C(=O)NC3(CCC(C)CC3)C2=O)sc(C(=O)N(C)C)c1C (configuration not stated),,,"0.58 µM [rising, full curve]"
COc1cc(C(=O)NC(=S)Nc2ccccc2N2CCOCC2)cc(OC)c1OC,,13%,
CC(Nc1nc(C(F)(F)F)nc2ccccc12)c1cccs1 (configuration not stated),,-19%,"6.51 µM [rising, single point]"
Cc1nc2cc(-c3ccccc3)nn2c(C)c1CCC(=O)N1CCN(c2ccccc2)CC1,"0.651 µM [falling, full curve]",-62%,"29.1 µM [falling, single point]"
CN(Cc1ccc(C(C)(C)C)cc1)C(=O)C1CCN(C(=O)Nc2ccccc2)CC1,"9.2 µM [falling, partial curve, poor fit]",-30.7%,"18.4 µM [falling, partial curve]"
O=C(O)CSc1c(-c2cccs2)[nH]c2ccccc12,,3.14%,
Cc1ccc(S(=O)(=O)N2C(=O)CCC2C(N)=O)cc1 (configuration not stated),,1.59%,
CCOc1ccc(OCCOCCn2ccnc2)cc1,"0.731 µM [rising, single point]",,"1.46 µM [rising, partial curve]"
CC(=O)c1ccccc1NC(=O)COc1ccc(N(C)S(=O)(=O)c2ccc(C)c(C)c2)cc1,,-6.25%,"29.1 µM [falling, single point]"
Cc1ccccc1NC(=O)COC(=O)c1cc(=O)c2ccccc2o1,,6.78%,"0.731 µM [falling, single point]"
CC(C)c1ccc(CN2CCN(S(=O)(=O)c3ccc(Cl)s3)CC2)cc1,,6.37%,

# A different layout for some results above:
Structure (SMILES)	AC50 [1]	cell number change	AC50 [2]
CC(=O)c1ccccc1NC(=O)COc1ccc(N(C)S(=O)(=O)c2ccc(C)c(C)c2)cc1		-6.25%	29.1 µM [falling, single point]
Cc1ccccc1NC(=O)COC(=O)c1cc(=O)c2ccccc2o1		6.78%	0.731 µM [falling, single point]
